Results published in the supplement of paper PMC12889115.
The other results are listed elsewhere or left out. Values are raw readings; no control value is given beside them.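 In the initial screen, polymyxin B was used at a concentration that permeabilizes Salmonella's outer membrane but not its inner membrane. Maximum growth was set by DMSO wells with or without polymyxin B. Since plates varied, data were ranked per plate, and compounds giving the lowest OD600 advanced as hits.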

System: Salmonella enterica serovar Typhimurium SL1344
Experiment: bacterial growth OD600 after 18 h with compound and polymyxin B; higher = more bacterial growth (less inhibition)
Conditions: 50 µM, Mueller-Hinton broth

SMILES	bacterial growth OD600 (polymyxin B 1 µg/mL)	bacterial growth OD600 (polymyxin B 0.75 µg/mL)
CCOC(=O)C1(Cc2ccccc2C(F)(F)F)CCN(Cc2nccn2CC)CC1	0.912	
CC1(C(=O)NC2CC(=O)N(Cc3ccccc3C(F)(F)F)C2)CC1 (stereo unspecified)	0.94	
O=C1CCC(CCC(=O)N2CCCC2c2nc3ccccc3s2)(Cc2ccc3c(c2)OCO3)N1 (stereo unspecified)		0.781
Cc1nc2ccc(C(=O)N3CCCC(CO)(CCOc4ccccc4)C3)cc2nc1C (stereo unspecified)		0.768
COCCC(=O)Nc1cc(C(=O)N(C)Cc2cn(C)nc2C)cc2nc(-c3ccccc3)n(C)c12		0.841
CC(C)NC1CC(C)(C)Cc2nc(N3CCC(O)CC3)ncc21 (stereo unspecified)		0.935
CS(=O)(=O)N1CCc2onc(-c3ccc(-c4ccccc4)cc3)c2C1		0.954
CCN(C)c1ccc(C(=O)NCCCc2c(C)noc2C)cn1	1.05	
CSc1nccc(-c2cc(Cl)c3c(c2)CC(CNC(=O)c2ccnn2C)O3)n1 (stereo unspecified)		0.687
CCn1cc(CN2CCC(C3(CC)NC(=O)N(CCc4ccc(OC)cc4)C3=O)CC2)c(C)n1 (stereo unspecified)		0.85
Cn1cnnc1SCCNC1CCN(c2ccc(CC(=O)NCCc3cccc(F)c3)cc2)CC1		0.813
COc1cccc(CC(=O)N2CCC(C3(C)NC(=O)N(Cc4cccc(OC)c4OC)C3=O)CC2)c1 (stereo unspecified)		0.886
O=C(c1ccco1)N1CCC2(CCCN(Cc3cccc(F)c3F)C2)C1 (stereo unspecified)	0.928	
CCn1cc(C(=O)N2CCC(C3CCN(Cc4cccnc4)CC3)C2)cn1 (stereo unspecified)		0.859
Cc1nc(CNC(=O)C2CCCN(C3CCN(C(C)C)CC3)C2)cs1 (stereo unspecified)		0.944
COc1cccc(CCC2CCCN(C(=O)C(C)(C)C)C2)c1 (stereo unspecified)		0.644

Part of the list above, set out differently:
CCn1cc(CN2CCC(C3(CC)NC(=O)N(CCc4ccc(OC)cc4)C3=O)CC2)c(C)n1 (stereo unspecified)
  bacterial growth OD600 (polymyxin B 0.75 µg/mL): 0.85
Cn1cnnc1SCCNC1CCN(c2ccc(CC(=O)NCCc3cccc(F)c3)cc2)CC1
  bacterial growth OD600 (polymyxin B 0.75 µg/mL): 0.813

Remaining list, next part:

SMILES	bacterial growth OD600 (polymyxin B 1 µg/mL)	bacterial growth OD600 (polymyxin B 0.75 µg/mL)
NC(=O)C1(N2CCCCC2)CCN(Cc2nc(-c3ccccc3)no2)CC1	0.806	
COc1ccccc1OCc1cc(C(=O)NC2CCCCCC2)no1		0.15
COCc1cc(CN2CCOC(Cc3ccc(F)cc3)C2)ccc1OC (stereo unspecified)		0.806
CC(C)CN(C)c1ccc(C(=O)N2CCCCC2CCn2cccn2)cn1 (stereo unspecified)	0.601	
COc1cc(OC)cc(C(=O)NCC2CCCN(Cc3cccc(C)n3)C2)c1 (stereo unspecified)	0.953	
Cc1nn(C)cc1CN(C)CC1(O)CCCN(Cc2ccc(F)c(F)c2)C1=O (stereo unspecified)	0.973	
CN(Cc1ccc(F)cc1)c1ccc(-c2nc(C3CC3)no2)cn1		0.187
CCC(C)NC(=O)c1coc(CN2CCN(Cc3ccccc3)CC2)n1 (stereo unspecified)	0.84	
CC(C)c1nc(CNC(=O)C2CCC(=O)N(Cc3ccc(Cl)cc3)C2)no1 (stereo unspecified)	0.81	
CSCc1ccc(C(=O)N2CCC3(CCCN(C)C3=O)C2)o1 (stereo unspecified)	0.923	
O=C(CCCCc1ccccc1)Nc1ccc(N2CCC(NCCn3cccn3)CC2)cc1		0.856
COCCNC(=O)c1ccc(OC)cc1OC1CCN(CCCSC)CC1	1.16	
NC(=O)C1(C(=O)N2CCC(C3CCN(Cc4ccc(Cl)cc4)C3)CC2)CC1 (stereo unspecified)		0.995
CN(C(=O)c1ccccn1)C(Cc1ccccc1)C1CCN(C(=O)c2cc3ccccc3o2)CC1 (stereo unspecified)		0.504
CCOC(=O)CNC(=O)N1CCc2onc(-c3ccc(Cl)cc3)c2C1		0.993
